Screening data, single-dose tests

Data taken from ChEMBL document CHEMBL3988442, “University of Dundee, Small-Polar-MMV Screening Library” (2021).

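Growth of Mycobacterium tuberculosis over 3 days (7H9 medium with glucose and tyloxapol); the read-out is not stated. Tested at 50 µM. Direction is inferred from retests: higher values go with more growth inhibition. Of about 69,000 compounds tested this way, about 760 (1.1%) reached 50% or more in at least one test.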

Each number is a percent effect as filed.
The controls that fix the scale are not given in the record; negative values are as filed.
This is an unselected part of the compounds tested.
Two or more numbers in one place are separate tests of the same structure; such repeats can differ widely.

| # | compound | percent effect |
|---|---|---|
| 1 | `CN(C)CCN1CCN(Cc2cccc(C#N)c2)Cc2cccnc21.O=C(O)C(F)(F)F.O=C(O)C(F)(F)F.O=C(O)C(F)(F)F` | -7.604 |
| 2 | `[H][C@]12CC[C@]([H])(CN(c3cnccn3)C1)N(C(=O)c1snnc1C)C2` | 29.24 |
| 3 | `CN1C(=O)C(c2ccccc2)CC12CCN(CCN1CCCC1=O)CC2` (centres unmarked) | -20.87 |
| 4 | `O=C(NCc1ccncc1)N1CCSCC1CCO` (centres unmarked) | -10.74 & -4.04 |
| 5 | `Cc1cc(-c2cnc(C(C)C)nc2CN(C)C(=O)c2ccccn2)on1` | -1.534 |
| 6 | `CCn1nc(CNC(C)(C)CO)c(-c2ccccc2)n1` | 33.24 |
| 7 | `O=C(NCCC(=O)N1CCCc2ccccc21)c1c(O)cc(F)cc1F` | 28.19 |
| 8 | `CCN1CC(COC(C)(C)C)Oc2ccncc2S1(=O)=O` (centres unmarked) | -12.17 |
| 9 | `O=C(Nc1ccc(-n2ccnc2)c(F)c1)C1CCN(C(=O)C2CC2)CC1` | 1.686 & -9.07 |
| 10 | `CCc1n[nH]c(C2CN(C(=O)CCc3cccs3)CCO2)n1` (centres unmarked) | -15.43 |
| 11 | `Cc1nc(N2CCN(C(=O)NCc3cscn3)CC2)sc1C` | -14.5 |
| 12 | `CCN(C(=O)c1ccc2nnc(C3CCN(C)C3)n2c1)C(C)C.O=C(O)C(F)(F)F` (centres unmarked) | 17.14 |
| 13 | `CC(C)N1CCOC(c2cc(CCO)[nH]n2)C1` (centres unmarked) | -7.269 |
| 14 | `CCOc1ccccc1CNC(=O)N1CCC(Cc2cnn(C)c2)C1` (centres unmarked) | -32.65 |
| 15 | `c1ccc(CCN2CCCC2c2ccnc(Nc3cnccn3)n2)cc1` (centres unmarked) | -0.5972 |
| 16 | `Cc1c(COC(C)C)cccc1NC(=O)N1CC[C@H](O)C1` | 10.4 |
| 17 | `[H][C@@]12CN(S(C)(=O)=O)C[C@]1([H])OCC(=O)N2CC1CCC1` | -35.91 & -3.265 |
| 18 | `COc1cccc(N2CCN(C(=O)C(O)c3ccccc3Cl)CC2=O)c1` (centres unmarked) | -12.39 |
| 19 | `NCCc1cccc(CN2CCN(c3cccc(Cl)c3)C(=O)C2)c1` | 8.391 |
| 20 | `COc1cccc(OCC2CCCN(C(=O)c3cc(C)n[nH]3)C2)c1` (centres unmarked) | -4.795 |
| 21 | `CO[C@@H]1CN(c2ccccc2)S(=O)(=O)[C@@]12CCN(Cc1ccccc1)C2` | 12.1 |
| 22 | `CCCn1cc(C(=O)N2CCOC(c3nc(-c4cccs4)no3)C2)cn1` (centres unmarked) | 40.31 |
| 23 | `CC(C)(C)OC(=O)N1CSC[C@@H]1C(=O)NCc1ccc(C#N)cc1` | 12.56 & 2.218 |
| 24 | `CCCn1cc(CNCC(c2ccc(C)s2)N2CCOCC2)cn1` (centres unmarked) | 16.96 & -7.465 |
| 25 | `CCc1ccc(C(=O)NC[C@H]2CCCN2C(=O)c2ccc(CC)o2)o1` | -34.91 |
| 26 | `CC(C)(C)n1ncc2c1CCCC2NCc1ccc2c(c1)OCCO2` (centres unmarked) | 2.851 |
| 27 | `O=C(O)C(F)(F)F.[H][C@@]12CN(Cc3cccs3)CCO[C@]1([H])CN(S(=O)(=O)C1CC1)C2` | -27.16 & -3.458 |
| 28 | `CCc1nc(CN(C)Cc2nc(-c3ccccc3Cl)oc2C)no1` | 25.95 |
| 29 | `COCCN1C(=O)CC[C@]12CC[C@@H](NC(=O)c1cc(C)on1)CC2` | 7.859 |
| 30 | `Cc1cnc(NC(=O)c2ccc(C3CCCN3CC(C)C)s2)s1` (centres unmarked) | 42.7 |
| 31 | `COc1cccc(S(=O)(=O)N2CCCCC2CCN2CCCC2=O)c1` (centres unmarked) | 22.46 |
| 32 | `CCc1nc(CN(C)C2CCN(CCCOc3ccccc3)C2)no1` (centres unmarked) | -38.27 |
| 33 | `O=C(CCC(=O)N1CCC(OCc2cccnc2)CC1)c1ccccc1` | -13.84 |
| 34 | `Cl.c1cncc(CNc2cncc(C3CCCN3)n2)c1` (centres unmarked) | 15.84 |
| 35 | `CC(C)c1nn(C)c(N(C)C)c1CNCCC(=O)NC1CCCC1` | 0.2287 |
| 36 | `CN1CCN(c2ccccc2CNC(=O)Cc2ccccc2F)CC1` | -11.12 |
| 37 | `CC1c2cc(F)ccc2CCN1CCS(=O)(=O)C(C)C` (centres unmarked) | 3.941 |
| 38 | `O=C(NCCc1ccccc1)NCC(O)c1cccc(F)c1` (centres unmarked) | -13.72 |
| 39 | `COc1ccc(C2(CNC(C)c3nnc(C)o3)CCCCC2)cc1` (centres unmarked) | 23.16 |
| 40 | `N#Cc1cn(CC(=O)NC2CC2)c2ccc(Br)cc2c1=O` | -5.095 |
| 41 | `O=C(c1c2c(N3CCCC3)ncnc2n2ccccc12)N1CCCC1` | -9.787 |
| 42 | `Cn1c(N2CCOCC2)nc2cc(C(=O)N3CCCOCC3)ccc21` | 9.152 |
| 43 | `Cc1noc(C)c1-c1nc(C2CCCN(C(=O)CN)C2)ccc1CO` (centres unmarked) | -12.39 |
| 44 | `Cc1[nH]c2c(F)cccc2c1CC(=O)NCCCNc1cccnc1` | 32.53 |
| 45 | `Cc1ccnc2c1NC(=O)CN2C(=O)CCc1cccs1` | -30.51 & 11.24 |
| 46 | `Cc1nc(C2CCCN(C(=O)c3cccc4c3OCCO4)C2)no1` (centres unmarked) | 0.3166 |
| 47 | `CC(=O)c1cccc(OCCCC(=O)N(C)Cc2ccccn2)c1` | 16.24 |
| 48 | `Cc1nnc2n1CCN(C(=O)c1cc(C)n(-c3cccnc3)c1C)C2` | 41.05 |
| 49 | `COC(=O)c1ccc(C)c(N2CCNC2=O)c1` | 18.41 & 0.494 |
| 50 | `CCN1CC(C(=O)NCc2cccnc2-n2cccn2)CC1=O` (centres unmarked) | -10.54 |
| 51 | `COc1nn(C)c2c1CCCN(C(=O)c1ccsc1)C2` | -3.747 |
| 52 | `Cc1cnn(CC2CCCN2CCCS(C)(=O)=O)c1` (centres unmarked) | 3.149 |
| 53 | `CC(C)c1ncncc1C(=O)N1CCCN(Cc2ccccc2)CC1` | -2.619 |
| 54 | `O=C1CSC(C(F)(F)F)c2c(O)nn(C3CCCCC3)c2N1` (centres unmarked) | -12.96 |
| 55 | `CNS(=O)(=O)c1cccc(C(C)NCc2ccncc2)c1` (centres unmarked) | -2.159 & -24.9 |
| 56 | `Cc1ccccc1CN1CCN(C(C)c2nc(C3CC3)no2)CC1` (centres unmarked) | -21.43 |
| 57 | `O=C(O)CSc1nccc(-c2ccc3c(c2)OCO3)n1` | 22.92 |
| 58 | `CCCN1CCC(NN2CCN(C)CC2)CC1` | 15.46 |
| 59 | `O=c1oc(-c2ccccc2)nn1CN1CCC(N2CCCCC2)CC1` | 1.299 & -27.44 |
| 60 | `O=C(COc1ccc(Cl)cc1)NCc1nncn1C1CC1` | -4.339 & -31.19 |
| 61 | `N#CC(Sc1nnnn1C1CCOCC1)C1CCCCC1` (centres unmarked) | 3.446 |
| 62 | `CN(Cc1ccccc1)C(=O)CN1CCOC(Cn2cncn2)C1` (centres unmarked) | -12.71 |
| 63 | `CCC(=O)Nc1ccc2c(ccn2CCOC)c1` | 13.14 |
| 64 | `O=C(O)C(F)(F)F.O=C(O)C(F)(F)F.[H][C@@]12COC[C@]1(COc1cccnc1)CN(Cc1nccs1)C2` | -4.345 |
| 65 | `Cl.O=C(c1ccnc(C2CCNCC2)c1)N1CCCC1` | -46.78 |
| 66 | `COc1ccc(SC(C)C(=O)N2CCC(C(N)=O)CC2)cc1` (centres unmarked) | -6.507 |
| 67 | `CCc1nc(C)ncc1C(=O)N1CCOC(c2nc(C)n[nH]2)C1` (centres unmarked) | 4.425 |
| 68 | `Cc1csc(CNC(=O)CCCc2cccs2)n1` | -0.154 |
| 69 | `CSCCC1c2nc[nH]c2CCN1Cc1[nH]c2ccc(F)cc2c1C` (centres unmarked) | 28.8 & 62.3 |
| 70 | `CC(NC(=O)Nc1ccccc1CN1CCOCC1)c1nnc(N)s1` (centres unmarked) | -2.202 & -1.807 |
| 71 | `O=C(NCCc1ccn(-c2ccccc2)n1)N1CCCC(CO)C1` (centres unmarked) | 29.92 |
| 72 | `[H][C@@]12CCN(C(=O)NC(C)C)CC[C@]1(C(=O)Nc1cccnc1)CCN2C` | -4.993 |
| 73 | `Fc1cc(CN2CCCC2Cn2cncn2)c2ncccc2c1` (centres unmarked) | -25.11 |
| 74 | `COc1cccc(CC2CN(C3CCC3)CCO2)c1` (centres unmarked) | -8.711 |
| 75 | `CC(C)(C)CC(=O)NCC(=O)Nc1ccn(Cc2ccncc2)n1` | -10.22 |
| 76 | `COC[C@H]1CCC[C@H]1Nc1ncnc2c1CCNCC2` | 17.56 |
| 77 | `[H][C@]12CN(C(C)=O)CCN1C(=O)N(Cc1ccc(F)cc1)C2` | -14.5 & 1.013 |
| 78 | `COCc1noc(-c2nn(-c3ccc(F)cc3)c3c2CCC3)n1` | 53.84 |
| 79 | `CC(NS(C)(=O)=O)C(=O)N(C)Cc1cnn(-c2ccc(F)cc2)c1` (centres unmarked) | -20.66 |
| 80 | `CC(O)CN1CCN(C(=O)c2ccc(N(C)C)nc2)CC1` (centres unmarked) | 9.449 |
| 81 | `COCc1cccc(S(=O)(=O)Nc2ncc(C)s2)c1` | -18.43 & 3.327 |
| 82 | `CC(C(=O)Nc1ccnn1C(C)C)N1CCCN(c2nccs2)CC1` (centres unmarked) | -22.65 |
| 83 | `CC(C)c1nccc(-c2nccn2CCS(C)(=O)=O)n1` | 13.89 & 0.5001 |
| 84 | `Fc1cc(CCNc2ccc3nccn3n2)c2c(c1)COCO2` | 6.501 |
| 85 | `Cc1noc(C)c1CN1CCN(C(C)c2nc(C3CC3)no2)CC1` (centres unmarked) | 11.14 |
| 86 | `O=C(O)C(F)(F)F.O=C(O)C(F)(F)F.[H][C@@]12OCCN(Cc3cc(C)on3)[C@@]1([H])CC[C@H]2OCc1cccc(C)n1` | -6.949 & 10.02 |
| 87 | `CC(C)N(C)Cc1cnc2n1CCN(Cc1ccco1)C2.O=C(O)C(F)(F)F.O=C(O)C(F)(F)F` | 4.529 |
| 88 | `CC[C@@H](C)[C@H](NC(=O)NC1CCS(=O)(=O)C1)C(=O)NCc1ccncc1` (some centres unmarked) | -22.01 |

The first 11 entries again:

{"compound": "CN(C)CCN1CCN(Cc2cccc(C#N)c2)Cc2cccnc21.O=C(O)C(F)(F)F.O=C(O)C(F)(F)F.O=C(O)C(F)(F)F", "percent effect": -7.604}
{"compound": "[H][C@]12CC[C@]([H])(CN(c3cnccn3)C1)N(C(=O)c1snnc1C)C2", "percent effect": 29.24}
{"compound": "CN1C(=O)C(c2ccccc2)CC12CCN(CCN1CCCC1=O)CC2", "stereo": "centres unmarked", "percent effect": -20.87}
{"compound": "O=C(NCc1ccncc1)N1CCSCC1CCO", "stereo": "centres unmarked", "percent effect": "-10.74 & -4.04"}
{"compound": "Cc1cc(-c2cnc(C(C)C)nc2CN(C)C(=O)c2ccccn2)on1", "percent effect": -1.534}
{"compound": "CCn1nc(CNC(C)(C)CO)c(-c2ccccc2)n1", "percent effect": 33.24}
{"compound": "O=C(NCCC(=O)N1CCCc2ccccc21)c1c(O)cc(F)cc1F", "percent effect": 28.19}
{"compound": "CCN1CC(COC(C)(C)C)Oc2ccncc2S1(=O)=O", "stereo": "centres unmarked", "percent effect": -12.17}
{"compound": "O=C(Nc1ccc(-n2ccnc2)c(F)c1)C1CCN(C(=O)C2CC2)CC1", "percent effect": "1.686 & -9.07"}
{"compound": "CCc1n[nH]c(C2CN(C(=O)CCc3cccs3)CCO2)n1", "stereo": "centres unmarked", "percent effect": -15.43}
{"compound": "Cc1nc(N2CCN(C(=O)NCc3cscn3)CC2)sc1C", "percent effect": -14.5}